Experimental data published in patent publication US20110275102A1.
These are yes or no findings as the source states them, for the method shown. Some results given as binding are weak or reduced against the parent protein; the word gives no strength.

Amino acid sequences for entries named in this document (tags omitted). A change or cut given only in a name is not applied to a line headed by its entry.
UniProt P31749: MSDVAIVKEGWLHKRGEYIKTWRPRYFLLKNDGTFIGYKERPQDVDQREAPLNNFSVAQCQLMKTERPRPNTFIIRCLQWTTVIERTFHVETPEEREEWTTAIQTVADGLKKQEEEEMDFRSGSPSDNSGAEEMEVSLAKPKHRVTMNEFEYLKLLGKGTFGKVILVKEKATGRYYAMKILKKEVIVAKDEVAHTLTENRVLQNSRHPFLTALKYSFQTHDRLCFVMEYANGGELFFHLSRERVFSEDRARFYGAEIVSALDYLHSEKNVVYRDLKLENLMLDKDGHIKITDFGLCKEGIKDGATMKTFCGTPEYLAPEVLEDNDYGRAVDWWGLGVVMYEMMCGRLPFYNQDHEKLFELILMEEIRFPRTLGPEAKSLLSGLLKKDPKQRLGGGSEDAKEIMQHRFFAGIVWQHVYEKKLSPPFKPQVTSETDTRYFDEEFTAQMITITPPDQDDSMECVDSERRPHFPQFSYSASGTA

Molecular target: GST-IMPDH: GST fused to the complete human IMPDH type II (pGEX-IMPDH) (human) (UniProt P12268)
Assay: in vitro binding to GST fusion on glutathione-agarose beads, Western blot with RACα antiserum

With “full-length human RACα produced in the baculovirus system (Sf9 cells) (from UniProt P31749 1-480) (enzyme)” the binding was “binds”.
